According to PubChem BioAssay AID493014 (National Center for Advancing Translational Sciences (NCATS), 2011):
This is one part of the list. Further columns of the screen follow, without active or inactive calls. The list favours compounds with an active or inconclusive main result. Words in brackets tell the shape of the fitted curve; partial curves, single points and poor fits give uncertain potencies.

Test: qHTS Assay to Find Inhibitors of Chronic Active B-Cell Receptor Signaling
Details: ABC-DLBCL IkBa-CBG/CBR reporter, luminescence ratio (green luciferase fused to IkBa over red control in TMD8 lymphoma cells), 4 h
How it was run: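 TMD8 ABC-DLBCL cells carrying doxycycline-inducible green luciferase fused to IkappaBalpha plus unfused red luciferase were exposed to compounds (up to 46 uM) for 4 hrs at 37C. Activity came from the overlap-corrected green/red luminescence ratio.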

[1] = measured here: CBR red luminescence, cell number
[2] = measured here: IkBa-CBG green luminescence

Structure (SMILES)	AC50 [1]	AC50 [2]
O=C(/C=C/NNC(=O)c1ccccc1)c1ccccc1	5.8 µM [falling, partial curve]	–
O=[N+]([O-])c1ccc(NC(=S)NCc2ccncc2)cc1	0.631 µM [rising, full curve, poor fit]	–
O=C(COc1cccnc1[N+](=O)[O-])Nc1ncc(Cl)cc1Cl	2.59 µM [rising, partial curve, poor fit]	–
O=C1CC(c2ccco2)Cc2c1cnn2-c1nc2ccccc2s1 (stereo not drawn)	29.1 µM [rising, single point]	–
Oc1ccc(/C=C/c2nc(-c3ccccc3O)n(-c3ccccc3)n2)cc1	11.2 µM [falling, partial curve, poor fit]	–
Cc1ccc(C2=NN(CCC(=O)NCCc3cccc(C)c3)C(=O)CC2)cc1	35.5 µM [falling, single point]	–
CN(CC(=O)Nc1ccccc1Sc1ccccc1)Cc1nc2ccccc2c(=O)[nH]1	1 µM [rising, full curve, poor fit]	–
O=C(CSc1nnc(-c2c[nH]c3ccccc23)o1)c1ccc(-c2ccccc2)cc1	18.4 µM [rising, single point]	–
Cc1nnc(SCC(=O)NCc2cccs2)n1-c1ccccc1	0.517 µM [rising, full curve, poor fit]	–
c1c2c(cc3sc(N4CCOCC4)nc13)OCCO2	7.31 µM [falling, partial curve, poor fit]	–
COc1ccc(-c2csc(NC(=O)Nc3ccccc3)n2)cc1	0.1 µM [rising, full curve, poor fit]	–
CCOc1ccc(Br)cc1S(=O)(=O)Nc1ccc(C(=O)OC(C)C(=O)N(C)c2ccccc2)cc1 (stereo not drawn)	9.2 µM [falling, partial curve]	–
CCOC(=O)C1=C(C)NC(C)=C(C(=O)OCC)C1	6.31 µM [falling, single point]	–
NC(=O)C1CCN(C2=C(NS(=O)(=O)c3ccccc3)C(=O)c3ccccc3C2=O)CC1	14.1 µM [rising, single point]	–
CCOC(=O)/C(C#N)=C1/C=Nc2ccccc2N1	7.31 µM [falling, partial curve, poor fit]	–
NNc1nc2c(-c3ccc(Cl)cc3)nnn2c2ccccc12	1.41 µM [falling, full curve]	–
COc1ccc(C(=O)OCC(=O)Nc2sccc2C(N)=O)cc1OC	4.47 µM [falling, full curve, poor fit]	–
O=C(Cn1ncc(Cl)c(Cl)c1=O)c1ccc(Cl)cc1	6.51 µM [falling, partial curve]	23.1 µM [rising, partial curve, poor fit]
CC(=O)Oc1ccc2c(=O)c(N3C(=O)c4ccccc4C3=O)c(C)oc2c1	23.1 µM [rising, single point]	–
COc1ccc(-c2c3c(=O)n(C)c(=O)n(C)c3cn2N2CCOCC2)cc1	6.51 µM [rising, partial curve, poor fit]	16.4 µM [falling, partial curve, poor fit]
O=c1cc(CSc2nnnn2-c2ccccc2)nc2scc(-c3ccccc3)n12	1.64 µM [falling, partial curve, poor fit]	–

Given with each value named: 3 of the compounds above
CCOc1ccc(Br)cc1S(=O)(=O)Nc1ccc(C(=O)OC(C)C(=O)N(C)c2ccccc2)cc1 (stereo not drawn)
  AC50 [1]: 9.2 µM [falling, partial curve]
CCOC(=O)C1=C(C)NC(C)=C(C(=O)OCC)C1
  AC50 [1]: 6.31 µM [falling, single point]
NNc1nc2c(-c3ccc(Cl)cc3)nnn2c2ccccc12
  AC50 [1]: 1.41 µM [falling, full curve]

(next part)

Structure (SMILES)	AC50 [1]	AC50 [2]
CC1(C)CC(=O)N(CC(=O)O)c2ccccc2S1	12.6 µM [falling, single point]	–
COc1ccc(OC)c(CCNC(=O)CSc2ccsc2[N+](=O)[O-])c1	35.5 µM [rising, single point]	–
O=C(COC(=O)C1CC2CCCC(C1)C2=O)Nc1ccccc1 (stereo not drawn)	3.66 µM [falling, partial curve, poor fit]	–
O=C(CCOc1ccccc1)Nc1ccccc1	11.2 µM [falling, partial curve]	–
COc1cccc(C(=O)NCc2nnc(SCC(=O)Nc3nccs3)n2-c2ccccc2)c1	10.3 µM [falling, single point]	–
O=[N+]([O-])c1cc([N+](=O)[O-])c2nonc2c1Nc1ccccc1O	8.91 µM [falling, partial curve]	–
Cc1ccccc1-c1nc(CN2CCC(C(=O)NCCCN3CCCC(C)C3)CC2)c(C)o1 (stereo not drawn)	35.5 µM [falling, single point]	–
c1ccc2[nH]c(CCCCc3nc4ccccc4[nH]3)nc2c1	10 µM [falling, single point]	–
O=C(CN1C(=O)c2ccccc2S1(=O)=O)c1ccc2c(c1)OCCCO2	3.55 µM [falling, single point]	–
O=C1C2ON(c3ccccc3)C(c3cccnc3)C2C(=O)N1c1ccccc1 (stereo not drawn)	3.66 µM [falling, single point]	–
COc1ccc(C)cc1NC(=O)CCNC(=O)Cn1cnc2ccccc2c1=O	3.16 µM [rising, partial curve, poor fit]	–
Cc1ccc(NC(=O)C2=C(O)c3sccc3N(C)S2(=O)=O)cc1	16.4 µM [falling, partial curve]	–
O=C(O)CCCC(=O)Nc1ccccc1SCCS(=O)(=O)c1ccc(Cl)cc1	0.891 µM [falling, partial curve, poor fit]	–
COc1ccc(C(=O)Nc2ccccc2C(=O)Nc2cc(C)ccn2)cc1	14.1 µM [falling, partial curve, poor fit]	–
O=C(C1CCCCC1)N1CCN(c2ncccn2)CC1	4.11 µM [rising, full curve, poor fit]	–
C/C(=N/NC(=O)c1ccccn1)c1ccncc1	10 µM [falling, partial curve, poor fit]	–
Cc1cc(C)cc(NC(=O)c2ccc(CSc3nnnn3C)cc2)c1	22.4 µM [falling, single point]	–
Cc1nnsc1C(=O)NNC(=O)Nc1ccccc1	12.6 µM [falling, partial curve]	–
Cc1ccc(C2=NN(C(=O)CN3CCN(C4CCS(=O)(=O)C4)CC3)C(c3ccco3)C2)cc1 (stereo not drawn)	20.6 µM [falling, single point]	–
COc1cccc(C(=O)NC(=S)Nc2ccc3[nH]c(=O)[nH]c3c2)c1	7.08 µM [falling, partial curve, poor fit]	–
